Laboratory results published in article PMC10123117.
These are yes or no findings as the source states them, for the method shown. Binding seen in cells or lysates may run through a third protein. Here binding means that the protein was enriched with, or labelled near, the bait; the list need not be complete.

By UniProt entry, the sequences of proteins in these tests, tags left out.
UniProt Q6A4J8: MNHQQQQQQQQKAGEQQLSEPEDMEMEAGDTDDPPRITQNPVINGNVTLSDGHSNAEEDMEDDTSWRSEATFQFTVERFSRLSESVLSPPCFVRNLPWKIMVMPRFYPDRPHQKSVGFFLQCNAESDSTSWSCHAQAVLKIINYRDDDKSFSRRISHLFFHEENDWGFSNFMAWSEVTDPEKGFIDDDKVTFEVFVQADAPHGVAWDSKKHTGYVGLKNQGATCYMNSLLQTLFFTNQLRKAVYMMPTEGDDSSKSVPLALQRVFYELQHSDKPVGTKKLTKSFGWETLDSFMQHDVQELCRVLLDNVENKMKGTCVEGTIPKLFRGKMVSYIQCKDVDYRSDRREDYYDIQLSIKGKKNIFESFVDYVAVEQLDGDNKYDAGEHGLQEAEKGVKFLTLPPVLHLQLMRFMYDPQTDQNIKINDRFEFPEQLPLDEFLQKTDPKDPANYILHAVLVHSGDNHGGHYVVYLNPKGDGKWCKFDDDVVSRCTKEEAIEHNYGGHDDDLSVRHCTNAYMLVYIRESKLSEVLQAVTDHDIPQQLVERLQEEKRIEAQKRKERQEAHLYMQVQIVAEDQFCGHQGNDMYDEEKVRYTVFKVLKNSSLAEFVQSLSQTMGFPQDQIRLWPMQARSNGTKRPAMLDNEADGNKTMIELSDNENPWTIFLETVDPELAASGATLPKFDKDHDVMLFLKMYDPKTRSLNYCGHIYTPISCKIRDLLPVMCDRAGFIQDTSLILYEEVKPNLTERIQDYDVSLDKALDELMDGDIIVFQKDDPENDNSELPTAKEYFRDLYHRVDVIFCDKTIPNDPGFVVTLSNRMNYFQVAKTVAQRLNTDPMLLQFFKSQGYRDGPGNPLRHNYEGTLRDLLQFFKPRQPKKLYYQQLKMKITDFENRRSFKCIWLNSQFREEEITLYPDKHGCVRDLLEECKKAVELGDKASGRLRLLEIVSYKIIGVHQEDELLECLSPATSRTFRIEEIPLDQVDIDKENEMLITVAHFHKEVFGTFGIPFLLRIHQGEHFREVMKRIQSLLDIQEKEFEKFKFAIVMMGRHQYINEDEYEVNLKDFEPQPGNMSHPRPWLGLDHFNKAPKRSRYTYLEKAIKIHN

Biological target: USP7 (mouse (endogenous in E14TG2a ES cells)) (UniProt Q6A4J8)
Assay: affinity purification with mass spectrometry; anti-USP7 immunoprecipitation of endogenous USP7 from WT mESC lysate, Usp7-KO ES cells as control, three independent experiments; nanoLC-MS/MS, spectral counts; enriched: fold change >4 and adjusted P <0.05

| binding | Binder |
| --- | --- |
| binds | CCDC55 (protein, UniProt Q5NCR9 1-542) MAIPGRQYGLILPKKTQPLHRVLQKPSVFGSDSDDDETSVSESLQREAAKKQAMKQTKLEIQKALAEDSTVYEYDSVYDEMQKKKEENNPKLLPGKDRKPKYIHNLLKAVEIRKKEQEKRMEKKIQREREMENGEFDDKEAFVTSAYKKKLEERAEEEEREKRAAALEAHLDVTKQKDLSGFYRHLLNQAVGEEAAPKSSFREARTVIKEEKLRGYPDETNSESRPPQQSCVLQRGAQEAEENPDADREFDDESSEDGEKRDHKVKSRGEDTGASMKHPKHHKNRAHSRSSSEERGLGTKHHSRGSQSRGHEHQDRQSRDQESCHKDRSHREEKSSHRHREASHKDHYWKKHEQEDKLKGREQEERQDREGKREKYSSREQERDRQRNDHDRYSEKEKKRKEKEEHTKARRERCEDSGKHREREKPEGHGQSSERHRDRRESSPRSRPKDDLDQERSSKARNTEKDKGEQGKPSHSETSLATKHRLAEERPEKGSEQERPPEAVSKFAKRSNEETVMSARDRYLARQMARINAKTYIEKEDD |
| binds | PPIL4 (protein, UniProt Q9CXG3 1-492) MAVLLETTLGDVVIDLYTEERPRACLNFLKLCKIKYYNYCLIHNVQRDFIIQTGDPTGTGRGGESIFGQLYGDQASFFEAEKVPRIKHKKKGTVSMVNNGSDQHGSQFLITTGENLDYLDGVHTVFGEVTEGMDIVKKINETFVDKDFVPYQDIRINHTVILDDPFDDPPDLLIPDRSPEPTKEQLDSGRIGADEEIDDFKGRSAEEVEEIKAEKEAKTQAILLEMVGDLPDADIKPPENVLFVCKLNPVTTDEDLEIIFSRFGPIRSCEVIRDWKTGESLCYAFIEFEKEEDCEKAFFKMDNVLIDDRRIHVDFSQSVAKVKWKGKGGKYTKSDFKEYEKEQDKPANLVLKEKVKPKQDAKYDLILDEQGEDSKSSHSHTSKKHKKKTRHCSEEKEDEEYMPIKNPNQDIYREMGFGHYEEEESCWEKQKNEKRDRRQNRSRSRSRERDGHYSNSHKPKYQTEPYERERSRKRDRSRSPKKSKAKEKSKYR |
| binds | PCGF6 (protein, UniProt Q99NA9 1-353) MDEAETDATENKRASEAKRASAMPPPPPPPPPISPPALIPAPAAGEEGPASLGQAGAAGCSRSRPPALEPERSLGRLRGRFEDYDEELEEEEEMEEEEEEEEEMSHFSLRLESGRADSEDEEERLINLVELTPYILCSICKGYLIDATTITECLHTFCKSCIVRHFYYSNRCPKCNIVVHQTQPLYNIRLDRQLQDIVYKLVINLEEREKKQMHDFYKERGLEVPKPAAPQPVPSSKGKTKKVLESVFRIPPELDMSLLLEFIGANEDTGHFKPLEKKFVRVSGEATIGHVEKFLRRKMGLDPACQVDIICGDHLLERYQTLREIRRAIGDTAMQDGLLVLHYGLVVSPLKIT |
| binds | DHX40 (protein, UniProt Q6PE54 1-779) MSRFPAVAGRAPRRQEEGERPIELQEERPSAVRIADREEKGCTSQEGGTTPTFPIQKQRKKLIQAVRDNSFLIVTGNTGSGKTTQLPKYLYEAGFSQHGMIGVTQPRKVAAISVAQRVAEEMKCTLGSKVGYQVRFDDCSSKETAIKYMTDGCLLKHILGDPNLSKFSVIILDEAHERTLTTDILFGLLKKLFQDKSPNRKEHLKVVVMSATMELAKLSAFFGNCPIFDIPGRLYPVREKFCNLIGPRDRENTAYIQAIVKVTMDIHLNEMAGDILVFLTGQFEIEKSCELLFQMAESVDYDYDVQDTTLDGLLILPCYGSMTTDQQRRIFLPPPPGIRKCVISTNISATSLTIDGIRYVVDGGFVKQLNHNPRLGLDILEVVPISKSEALQRSGRAGRTASGKCFRIYSKEFWSQCMPDHVIPEIKRTSLTSVVLTLKCLAIHDVIRFPYLDPPNERLILEALKQLYQCDAIDRSGHVTRLGLSMVEFPLPPHLTCAVIRAASLDCEDLLLPIAAMLSVENVFIRPVDPEYQKEAEQRHRELAAKAGGFNDFATLAVIFEQCKSSGAPASWCQKHWIHWRCLFSAFRVEAQLRELIRKLKQQSDFPRETFEGPKHEVLRRCLCAGYFKNVARRSVGRTFCTMDGRGSPVHIHPSSALHEQETKLEWIIFHEVLVTTKVYARIVCPIRYEWVRDLLPKLHELNAHDLSSVARREMREDARRKWTNKENVKQLKDGISKEVLKKMQRRNDDKSISDARARFLERKQQRIQDHSDTLKETG |
| binds | DDX24 (protein, UniProt Q9ESV0 1-857) MKVKETNSKPKLASRGTFQRKGIKIVGKWKQVTIDPNLFADGQMDDLVCFEELTDYRLVKNPSRLFSSEETKKRKAQAVSEEEEEEEGQSSSPKKKIKLKKQRDAARAAEGAAAQNEYEVKASEPEAQGEVTACSDQKVGGAKSESLAQAAPRKKKNKGKKKLDTFQSTSPKLPKKSKKTWMAEVHDQKADVSAWRDLFVPKAVLRALSFLGFSAPTPIQALTLAPAIRDKLDILGAAETGSGKTLAFAIPMIHSVLQWHKMKAPPIPRSTGMPPREMRFGATAHLGSPCKDRTESGVLPEEARIETEAQPSDSGVQATPETSASASAQTLLVCDDDAGEGPSSLEEKPVPKQNEDGEEKFDAEQAGKLKQELCDQIAIYKVHPRRPLLGLVLTPTRELAIQVRQHIDAVAKFTGINTAILVGGMSTQKQQRMLNRHPEIVIATPGRLWELVKEKHPHLSNLRQLRCLVIDEADRMVEKGHFAELSQLLEMLNDSQYNPSRQTLVFSATLTLVHQAPARILHKKHVKKMDKTDKLDLLMQKVGMRGKPKVIDLTRNEGTVETLTETKIHCETDEKDLYLYYFLMQYPGRSLVFANSISCIKRLSGLLKVLDVMPLTLHACMHQKQRLRNLEQFARLQDCVLLATDVAARGLDIPKVQHVIHYQVPRTSEIYIHRSGRTARAASEGLSLMLIGPEDVINFKKIYKTLQKDEDIPLFPVQSKYMDVVKERIRLARQIEKAEYRNFQACLHNSWIEQAAAALEIELEEEMYKGGKADQQEERRRQKQMKMLKQELRHLLSQPLFQENLKTRYPTQSGRPPQPVLASRNIESALSCLSRQKRRRKKPKEPRAPPQPGSSTS |
| binds | FBXO38 (protein, UniProt Q8BMI0 1-1194) MGPRKKSAKVCVMDSEVAEEMTADEEKDYMNQLSHEVLCHIFRYLPLQDIMCMECLSRKLKEAVTLYLRVVRVVDLCAGRWWEYMPSGFTDSSFLTLLKKMPDVEQLYGLHPRYLERRRVRGQEAFSIPGVLEALQACPNLVGVETSHLELVESIWTYMPHVHILGKFRNRNGAFPIPPENKLKIPIGAKIQTLHLVGVNVPEIPCIPMLRHLYMKWVRLTKPQPFKDFLCISLRTFVMRNCAGPTNSLKYVPLVTGLASARNLEHLEMVRVPFLGGLIQHVVEDSWRSGGFRNLHTIVLGACKNALEVDLGYLIITAARRLHEVRIQPSLTKDGVFSALKMAELEFPQFETLHLGYVDEFLLQSRMANADLVKYGLADVVENPGIITDIGMKAVNEVFSCIKYLAIYNCPHLHNPYNWISDHSRWMRLVDINLVRCHALKLDSFGQFVELLPSLEFISLDQMFREPPKGCARVGLSAGTGIGVSSALVSNQNSNNDNDNNAPNNNANLHDNNHHHPDDSDDDNDFRPDLQAGEAQFAADALNEMEDMVQEDGELVAESGNGMPAHNREVLPVDADEEQAGPSGLQRVVKPTPIADHDSESDDEEDSLELQEVWAPKNGTRRYSEREEKTGDSGQSRETAVSGKGKTPLRKRCNNSHQTGQAKPFPLEESSCEKGCQVTSEQIKADMKAARDVSEKKKSKDVYPSCSSSSSSTAASTAGNASSPSTASQSPDFARTVTSSGSSEPSPPEVDVSRQCVCSPGGSEDSEAMEEGDAESSVCPRCCCLRPQESQRRTGRCSDEERPSTSRACVVNGADGTRSAFSFRTLPQGGSSGPAHDERTNGSGCGATGEDRRGSSQPESCDVQSNEDYPRRPLTRARSRLSHVPLISESEVAKTKPCHAMKRKRTADKSTSTSDPVIEDDHVQVLVLKSKNLVGVTMTNCGITDLVLKDCPKMMFIHATRCRVLKHLKVENAPIVNRFDYAQCKKLNMDQVLDQILRMPPERNRIIYLRPMQQVDTLTLEQKLFSGPYPYHICIIHEFSNPPNVRNKVRIRNWMDTIANINQELIKYEFFLEATRTEEDLKKYPKYPWGREIYTLEGVVDGAPYSMISDFPWLRSLRTAEPNSFARYDFEDDEESTIYAPRRKGQLSADICMETIGEEISEMRQMKRGIFQRVVAIFIHYCDVNGEPVEDDYI |
